Results reported in paper PMC6548130.
No constants are given. Whether binding was seen depends on the method and setting. Binding seen in cells or lysates may run through a third protein. A result given as binding can be weak or reduced; the word gives no strength.

Molecular target: T1, VN-Atg17 (yeast) (UniProt Q06410)
T1 sequence: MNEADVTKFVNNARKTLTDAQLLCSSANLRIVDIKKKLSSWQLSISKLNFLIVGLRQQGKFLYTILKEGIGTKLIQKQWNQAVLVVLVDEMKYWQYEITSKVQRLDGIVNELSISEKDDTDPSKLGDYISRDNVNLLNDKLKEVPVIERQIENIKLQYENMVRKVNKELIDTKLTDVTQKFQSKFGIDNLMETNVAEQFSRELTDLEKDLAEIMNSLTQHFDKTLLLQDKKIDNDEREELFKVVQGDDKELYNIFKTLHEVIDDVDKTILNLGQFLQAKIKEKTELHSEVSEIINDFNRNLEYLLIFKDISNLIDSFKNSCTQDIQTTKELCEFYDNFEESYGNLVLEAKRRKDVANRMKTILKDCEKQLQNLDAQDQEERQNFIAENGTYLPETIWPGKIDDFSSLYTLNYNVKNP
Experiment: split reporter; BiFC with the two halves of Venus: pVC-SNF7 and pVN-ATGX cotransformed in yeast cells, expression induced in SD-Ura-His-Met for 1.5 h, starved in SD-N for 30 min, YFP dots seen by live-cell fluorescence microscopy; Atg17-Snf7 also tested in vps9Δ, vps21Δ, vps8Δ, pep12Δ, ypt7Δ and vps39Δ cells (dependent on the Rab5 module, not on Ypt7 or Vps39)

binding: binds
Substance: membrane-binding domain of Snf7 (BiFC construct) (yeast) (domain or fragment)
